Results published in paper PMC5780041.
Results are given in words; binding and its absence hold for the method and conditions named. In cells and extracts the contact can be indirect. A yes stands for co-enrichment or nearness to the bait. Other partners may have been found.

Chains of the proteins cited; added tags and fusions are not shown. Lines headed by an entry give the natural chain unless they say otherwise; changes in a name come on top.
UniProt P51149: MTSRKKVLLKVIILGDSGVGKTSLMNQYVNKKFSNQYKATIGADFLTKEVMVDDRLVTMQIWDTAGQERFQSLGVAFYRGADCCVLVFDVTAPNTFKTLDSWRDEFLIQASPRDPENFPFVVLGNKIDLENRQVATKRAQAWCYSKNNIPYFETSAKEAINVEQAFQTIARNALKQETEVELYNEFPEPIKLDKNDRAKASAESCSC

Biological target: 2 × HA-tagged RAB7A T22N mutant (UniProt P51149)
Experiment: affinity purification with mass spectrometry; TBC1D15/17 DKO HCT116 cells with mCherry-Parkin and 2HA-RAB7A (T22N), DMSO or valinomycin 3 hr; cells cross-linked with 5 mM DTBP; lysis in MCLB buffer (0.5% NP40); anti-HA beads overnight at 4°C, HA peptide elution; CompPASS analysis

binding: binds
B1: GDI1 (protein, UniProt P31150 1-447)
chain: MDEEYDVIVLGTGLTECILSGIMSVNGKKVLHMDRNPYYGGESSSITPLEELYKRFQLLEGPPESMGRGRDWNVDLIPKFLMANGQLVKMLLYTEVTRYLDFKVVEGSFVYKGGKIYKVPSTETEALASNLMGMFEKRRFRKFLVFVANFDENDPKTFEGVDPQTTSMRDVYRKFDLGQDVIDFTGHALALYRTDDYLDQPCLETVNRIKLYSESLARYGKSPYLYPLYGLGELPQGFARLSAIYGGTYMLNKPVDDIIMENGKVVGVKSEGEVARCKQLICDPSYIPDRVRKAGQVIRIICILSHPIKNTNDANSCQIIIPQNQVNRKSDIYVCMISYAHNVAAQGKYIAIASTTVETTDPEKEVEPALELLEPIDQKFVAISDLYEPIDDGCESQVFCSCSYDATTHFETTCNDIKDIYKRMAGTAFDFENMKRKQNDVFGEAEQ
